{"source": "PubChem BioAssay AID652272 (Drosophila RNAi Screening Center, 2013)", "aim": "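Finding fly genes that regulate Hedgehog signal transduction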 (primary screen)", "cells": "Drosophila clone 8 (Cl8) cells", "knock-down reagent": "long dsRNA against Drosophila genes", "measurement": "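Plate reader light from a firefly reporter under a ptc promoter fragment that responds to Hedgehog, with Renilla light as transfection reference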", "scale": "firefly Hh reporter signal: higher = more ptc reporter light; Renilla reference signal: higher = more Renilla control light", "rule for the call": "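Called a hit if the two-replicate mean z-score lies below -2 or above +3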", "meaning of the calls": "active = hit: reporter lowered or raised; inactive = not a hit", "note": "The deposit covers about 21,000 reagents; this is a random part of those that have a named target and a result. In the full data, 503 (2.4%) are marked active. 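Raw plate light values, not normalised; calls rest on replicate z-scores that were not deposited; hits include reporter decreases as well as increases.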 The numbers tell different reagents against one gene apart. Reagent sequences are not shown. Not stated in the record: the amount of reagent, the time to read-out."}
The first 2 entries as a preview:
{"predicted target":"sif (GeneID 43892)","reagent no.":1,"firefly Hh reporter signal, replicate 1":1.14e5,"firefly Hh reporter signal, replicate 2":2.35e5,"Renilla reference signal, replicate 1":9286,"Renilla reference signal, replicate 2":8187,"activity call":"inactive"}
{"predicted target":"sif (GeneID 43892)","reagent no.":2,"firefly Hh reporter signal, replicate 1":86788,"firefly Hh reporter signal, replicate 2":96951,"Renilla reference signal, replicate 1":7788,"Renilla reference signal, replicate 2":6648,"activity call":"inactive"}

The listing, from the start:
{"predicted target":"sif (GeneID 43892)","reagent no.":1,"firefly Hh reporter signal, replicate 1":1.14e5,"firefly Hh reporter signal, replicate 2":2.35e5,"Renilla reference signal, replicate 1":9286,"Renilla reference signal, replicate 2":8187,"activity call":"inactive"}
{"predicted target":"sif (GeneID 43892)","reagent no.":2,"firefly Hh reporter signal, replicate 1":86788,"firefly Hh reporter signal, replicate 2":96951,"Renilla reference signal, replicate 1":7788,"Renilla reference signal, replicate 2":6648,"activity call":"inactive"}
{"predicted target":"ERp60 (GeneID 36270)","reagent no.":1,"firefly Hh reporter signal, replicate 1":69766,"firefly Hh reporter signal, replicate 2":64331,"Renilla reference signal, replicate 1":2466,"Renilla reference signal, replicate 2":2699,"activity call":"inactive"}
{"predicted target":"ana2 (GeneID 35878)","reagent no.":1,"firefly Hh reporter signal, replicate 1":64884,"firefly Hh reporter signal, replicate 2":55666,"Renilla reference signal, replicate 1":2759,"Renilla reference signal, replicate 2":2188,"activity call":"inactive"}
{"predicted target":"tsr (GeneID 37841)","reagent no.":1,"firefly Hh reporter signal, replicate 1":83814,"firefly Hh reporter signal, replicate 2":84296,"Renilla reference signal, replicate 1":1658,"Renilla reference signal, replicate 2":6605,"activity call":"inactive"}
{"predicted target":"Shaw (GeneID 33599)","reagent no.":1,"firefly Hh reporter signal, replicate 1":1.86e5,"firefly Hh reporter signal, replicate 2":79381,"Renilla reference signal, replicate 1":4769,"Renilla reference signal, replicate 2":7761,"activity call":"inactive"}
{"predicted target":"Shaw (GeneID 33599)","reagent no.":2,"firefly Hh reporter signal, replicate 1":2.08e5,"firefly Hh reporter signal, replicate 2":6.84e5,"firefly Hh reporter signal, replicate 3":86452,"Renilla reference signal, replicate 1":4888,"Renilla reference signal, replicate 2":37329,"activity call":"inactive"}
{"predicted target":"Pcl (GeneID 37069)","reagent no.":1,"firefly Hh reporter signal, replicate 1":1.67e5,"firefly Hh reporter signal, replicate 2":94256,"Renilla reference signal, replicate 1":6545,"Renilla reference signal, replicate 2":4122,"activity call":"inactive"}
{"predicted target":"Ppm1 (GeneID 38071)","reagent no.":1,"firefly Hh reporter signal, replicate 1":52032,"firefly Hh reporter signal, replicate 2":42058,"Renilla reference signal, replicate 1":2198,"Renilla reference signal, replicate 2":3201,"activity call":"inactive"}
{"predicted target":"Cnb (GeneID 38258)","reagent no.":1,"firefly Hh reporter signal, replicate 1":95397,"firefly Hh reporter signal, replicate 2":63075,"Renilla reference signal, replicate 1":4355,"Renilla reference signal, replicate 2":2613,"activity call":"inactive"}
{"predicted target":"PIG-A (GeneID 37020)","reagent no.":1,"firefly Hh reporter signal, replicate 1":81848,"firefly Hh reporter signal, replicate 2":58016,"Renilla reference signal, replicate 1":3944,"Renilla reference signal, replicate 2":2608,"activity call":"inactive"}
{"predicted target":"CG31740 (GeneID 261618)","reagent no.":1,"firefly Hh reporter signal, replicate 1":1.39e5,"firefly Hh reporter signal, replicate 2":2.60e5,"Renilla reference signal, replicate 1":4203,"Renilla reference signal, replicate 2":12370,"activity call":"inactive"}
{"predicted target":"CG5854 (GeneID 42831)","reagent no.":1,"firefly Hh reporter signal, replicate 1":5.98e5,"firefly Hh reporter signal, replicate 2":79527,"Renilla reference signal, replicate 1":3478,"Renilla reference signal, replicate 2":3478,"activity call":"inactive"}
{"predicted target":"Rpn5 (GeneID 40717)","reagent no.":1,"firefly Hh reporter signal, replicate 1":91273,"firefly Hh reporter signal, replicate 2":63256,"Renilla reference signal, replicate 1":4460,"Renilla reference signal, replicate 2":3210,"activity call":"inactive"}
{"predicted target":"Gr33a (GeneID 34641)","reagent no.":1,"firefly Hh reporter signal, replicate 1":71309,"firefly Hh reporter signal, replicate 2":40858,"Renilla reference signal, replicate 1":2032,"Renilla reference signal, replicate 2":3427,"activity call":"inactive"}
{"predicted target":"pio (GeneID 37929)","reagent no.":1,"firefly Hh reporter signal, replicate 1":87096,"firefly Hh reporter signal, replicate 2":81143,"Renilla reference signal, replicate 1":3276,"Renilla reference signal, replicate 2":3205,"activity call":"inactive"}
{"predicted target":"CG15465 (GeneID 31434)","reagent no.":1,"firefly Hh reporter signal, replicate 1":1.07e5,"firefly Hh reporter signal, replicate 2":3.08e5,"Renilla reference signal, replicate 1":3989,"Renilla reference signal, replicate 2":10779,"activity call":"inactive"}
{"predicted target":"drl (GeneID 44355)","reagent no.":1,"firefly Hh reporter signal, replicate 1":87152,"firefly Hh reporter signal, replicate 2":62503,"Renilla reference signal, replicate 1":3256,"Renilla reference signal, replicate 2":2717,"activity call":"inactive"}
{"predicted target":"CG15456 (GeneID 50123)","reagent no.":1,"firefly Hh reporter signal, replicate 1":69536,"firefly Hh reporter signal, replicate 2":3.15e5,"Renilla reference signal, replicate 1":1907,"Renilla reference signal, replicate 2":12528,"activity call":"inactive"}
{"predicted target":"PlexB (GeneID 43766)","reagent no.":1,"firefly Hh reporter signal, replicate 1":90822,"firefly Hh reporter signal, replicate 2":2.14e5,"Renilla reference signal, replicate 1":2098,"Renilla reference signal, replicate 2":7703,"activity call":"inactive"}
{"predicted target":"Grx1t (GeneID 37483)","reagent no.":1,"firefly Hh reporter signal, replicate 1":85139,"firefly Hh reporter signal, replicate 2":46160,"Renilla reference signal, replicate 1":2877,"Renilla reference signal, replicate 2":4624,"activity call":"inactive"}
